Some of the results follow.
Experiments:
Assay in all cases: glycan array binding signal (z-score within array); higher = stronger binding
Settings in all cases: glycan notation: IUPAC condensed, linker removed
[1] = molecular target: Man(a1-2)Man(a1-3)[Man(a1-2)Man(a1-6)]Man
Outline: (§1)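 Negative Z-scores can be read as non-binding. The Z-score is calculated within each array and then averaged across arrays of one protein sequence at different concentrations or buffers and across linkers. Arrays, 3228 in all, were curated from the Consortium for Functional Glycomics database and kept only where the protein sequence was available.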

[2] = molecular target: Man(a1-2)Man(a1-3)[Man(a1-2)Man(a1-6)]Man(a1-6)[Man(a1-2)Man(a1-2)Man(a1-3)]Man
Outline: as §1

[3] = molecular target: Man(a1-2)Man(a1-3)[Man(a1-2)Man(a1-6)]Man(a1-6)[Man(a1-2)Man(a1-2)Man(a1-3)]Man(b1-4)GlcNAc(b1-4)GlcNAc
Outline: as §1

[4] = molecular target: Man(a1-2)Man(a1-3)[Man(a1-6)]Man(a1-6)[Man(a1-2)Man(a1-3)]Man(b1-4)GlcNAc(b1-4)GlcNAc
Outline: as §1

[5] = molecular target: Man(a1-2)Man(a1-6)[Man(a1-3)]Man(a1-6)[Man(a1-2)Man(a1-2)Man(a1-3)]Man
Outline: as §1

[6] = molecular target: Man(a1-2)Man(a1-6)[Man(a1-3)]Man(a1-6)[Man(a1-2)Man(a1-2)Man(a1-3)]Man(b1-4)GlcNAc(b1-4)GlcNAc
Outline: as §1

[7] = molecular target: Man(a1-3)[Man(a1-6)]Man
Outline: as §1

[8] = molecular target: Man(a1-3)[Man(a1-6)]Man(a1-6)[Man(a1-2)Man(a1-3)]Man(b1-4)GlcNAc(b1-4)GlcNAc
Outline: as §1

[9] = molecular target: Man(a1-3)[Man(a1-6)]Man(a1-6)[Man(a1-3)]Man
Outline: as §1

[10] = molecular target: Man(a1-3)[Man(a1-6)]Man(a1-6)[Man(a1-3)]Man(b1-4)GlcNAc(b1-4)GlcNAc
Outline: as §1

[11] = molecular target: Man(a1-3)[Man(a1-6)]Man(b1-4)GlcNAc(b1-4)GlcNAc
Outline: as §1

[12] = molecular target: Man(a1-3)[Man(a1-6)]Man(b1-4)GlcNAc(b1-4)[Fuc(a1-6)]GlcNAc
Outline: as §1

[13] = molecular target: Man(a1-6)Man
Outline: as §1

[14] = molecular target: Man(b1-4)GlcNAc
Outline: as §1

[15] = molecular target: MurNAc(b1-4)GlcNAc
Outline: as §1

[16] = molecular target: Neu5Ac(a2-3)Gal
Outline: as §1

[17] = molecular target: Neu5Ac(a2-3)Gal(b1-3)GalNAc
Outline: as §1

[18] = molecular target: Neu5Ac(a2-3)Gal(b1-3)GalNAc(b1-3)Gal(a1-4)Gal(b1-4)Glc
Outline: as §1

[19] = molecular target: Neu5Ac(a2-3)Gal(b1-3)GalNAc(b1-4)Gal(b1-4)Glc
Outline: as §1

[20] = molecular target: Neu5Ac(a2-3)Gal(b1-3)GalNAc(b1-4)[Neu5Ac(a2-3)]Gal(b1-4)Glc
Outline: as §1

[21] = molecular target: Neu5Ac(a2-3)Gal(b1-3)GalNAc(b1-4)[Neu5Ac(a2-8)Neu5Ac(a2-3)]Gal(b1-4)Glc
Outline: as §1

[22] = molecular target: Neu5Ac(a2-3)Gal(b1-3)GalNAc6S
Outline: as §1

[23] = molecular target: Neu5Ac(a2-3)Gal(b1-3)GlcNAc
Outline: as §1

[24] = molecular target: Neu5Ac(a2-3)Gal(b1-3)GlcNAc(b1-2)Man
Outline: as §1

[25] = molecular target: Neu5Ac(a2-3)Gal(b1-3)GlcNAc(b1-2)Man(a1-3)[GlcNAc(b1-4)][Neu5Ac(a2-3)Gal(b1-3)GlcNAc(b1-2)Man(a1-6)]Man(b1-4)GlcNAc(b1-4)GlcNAc
Outline: as §1

[26] = molecular target: Neu5Ac(a2-3)Gal(b1-3)GlcNAc(b1-2)Man(a1-3)[Neu5Ac(a2-3)Gal(b1-3)GlcNAc(b1-2)Man(a1-6)]Man(b1-4)GlcNAc(b1-4)GlcNAc
Outline: as §1

[27] = molecular target: Neu5Ac(a2-3)Gal(b1-3)GlcNAc(b1-2)[Neu5Ac(a2-3)Gal(b1-3)GlcNAc(b1-4)]Man(a1-6)[Neu5Ac(a2-3)Gal(b1-3)GlcNAc(b1-2)Man(a1-3)]Man(b1-4)GlcNAc(b1-4)GlcNAc
Outline: as §1

[28] = molecular target: Neu5Ac(a2-3)Gal(b1-3)GlcNAc(b1-3)Gal(b1-3)GlcNAc
Outline: as §1

[29] = molecular target: Neu5Ac(a2-3)Gal(b1-3)GlcNAc(b1-3)Gal(b1-4)GlcNAc
Outline: as §1

[30] = molecular target: Neu5Ac(a2-3)Gal(b1-3)GlcNAc(b1-3)GalNAc
Outline: as §1

B1: R2-fiber (Pseudomonas aeruginosa), Q9S576 (protein)
chain: HHHHHHKVAKDLVVSLAYQVRTEDGVLVDESPVSAPLDYLHGHGSLISGLETALEGHEVGDKFDVAVGANDAYGQYDENLVQRVPKDVFMGVDELQVGMRFLAETDQGPVPVEITAVEDDHVVVDGNHMLAGQNLKFNVEVVAIREATEEELAHGHVHGAHDHHHDHDHDGCCGGHGHDHGHEHGGEGCCGGKGNGGCGCHENLYFQGVTAGMALAATDIPGLDASKLVSGVLAEQRLPVFARGLATAVSNSSDPNTATVPLMLTNHANGPVAGRYFYIQSMFYPDQNGNASQIATSYNATSEMYVRVSYAANPSIREWLPWQRCDIGGSFTKEADGELPGGVNLDSMVTSGWWSQSFTAQAASGANYPIVRAGLLHVYAASSNFIYQTYQAYDGESFYFRCRHSNTWFPWRRMWHGGDFNPSDYLLKSGFYWNALPGKPATFPPSAHNHDVGQLTSGILPLARGGVGSNTAAGARSTIGAGVPATASLGASGWWRDNDTGLIRQWGQVTCPADADASITFPIPFPTLCLGGYANQTSAFHPGTDASTGFRGATTTTAVIRNGYFAQAVLSWEAFGR
- glycan array binding signal (z-score) [1]: -0.739
- glycan array binding signal (z-score) [2]: -0.717
- glycan array binding signal (z-score) [3]: -0.216
- glycan array binding signal (z-score) [4]: -0.822
- glycan array binding signal (z-score) [5]: -0.104
- glycan array binding signal (z-score) [6]: -0.04
- glycan array binding signal (z-score) [7]: 0.568
- glycan array binding signal (z-score) [8]: 0.172
- glycan array binding signal (z-score) [9]: 0
- glycan array binding signal (z-score) [10]: 0.02
- glycan array binding signal (z-score) [11]: -0.673
- glycan array binding signal (z-score) [12]: -0.775
- glycan array binding signal (z-score) [13]: -0.173
- glycan array binding signal (z-score) [14]: -0.572
- glycan array binding signal (z-score) [15]: -0.717
- glycan array binding signal (z-score) [16]: 2.35
- glycan array binding signal (z-score) [17]: -0.092
- glycan array binding signal (z-score) [18]: -0.432
- glycan array binding signal (z-score) [19]: 0.234
- glycan array binding signal (z-score) [20]: -0.554
- glycan array binding signal (z-score) [21]: 1.07
- glycan array binding signal (z-score) [22]: -0.342
- glycan array binding signal (z-score) [23]: -0.016
- glycan array binding signal (z-score) [24]: 0.138
- glycan array binding signal (z-score) [25]: -0.285
- glycan array binding signal (z-score) [26]: -0.122
- glycan array binding signal (z-score) [27]: 0.062
- glycan array binding signal (z-score) [28]: -0.522
- glycan array binding signal (z-score) [29]: -0.269
- glycan array binding signal (z-score) [30]: -0.718
